Experimental findings from patent US20260226176A1 (THERANOVIR, published 2026) are described below.

The chains behind the UniProt entries cited, without tags or fusion partners. Residues count along the entry.
UniProt O14786, residues 22-856: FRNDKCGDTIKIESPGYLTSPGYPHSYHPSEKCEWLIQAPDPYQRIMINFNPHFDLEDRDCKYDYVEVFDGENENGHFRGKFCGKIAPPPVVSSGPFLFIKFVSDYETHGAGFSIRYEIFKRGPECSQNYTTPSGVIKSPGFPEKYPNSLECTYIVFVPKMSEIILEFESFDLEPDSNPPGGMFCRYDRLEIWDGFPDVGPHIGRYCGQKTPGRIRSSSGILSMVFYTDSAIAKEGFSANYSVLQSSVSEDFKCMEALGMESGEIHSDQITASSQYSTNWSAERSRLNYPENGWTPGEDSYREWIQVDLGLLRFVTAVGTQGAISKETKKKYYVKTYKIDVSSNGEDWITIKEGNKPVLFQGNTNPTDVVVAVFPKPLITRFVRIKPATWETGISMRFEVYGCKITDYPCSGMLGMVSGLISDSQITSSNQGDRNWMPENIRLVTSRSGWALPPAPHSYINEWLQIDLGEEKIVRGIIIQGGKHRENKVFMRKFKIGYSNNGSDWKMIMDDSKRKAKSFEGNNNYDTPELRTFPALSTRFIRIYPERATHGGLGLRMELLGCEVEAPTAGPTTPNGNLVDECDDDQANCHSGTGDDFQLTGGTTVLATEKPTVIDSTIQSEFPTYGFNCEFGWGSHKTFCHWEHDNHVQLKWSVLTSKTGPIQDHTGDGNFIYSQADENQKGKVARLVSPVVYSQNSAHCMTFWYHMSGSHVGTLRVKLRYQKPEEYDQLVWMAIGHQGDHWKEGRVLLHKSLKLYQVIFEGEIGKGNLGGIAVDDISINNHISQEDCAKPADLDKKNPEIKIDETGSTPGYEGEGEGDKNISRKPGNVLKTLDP

The experiment deals with recombinant human NRP-1 (3870-N1-025, Bio-Techne) (human) (UniProt O14786). In words: ELISA. (ELISA stands for enzyme-linked immunosorbent assay.)

No constants are given. Whether binding was seen depends on the method and setting. Some binding calls cover weakened binding; strength is not graded here.

B1: variant 6 a-NRP1_LEP n° 1 (antibody, V domains shown)
VH: EVQLVESGGGLVQPGGSLRLSCAASGFTFSSYSMHWVRQAPGKGLEWVSYISSGSSTIHYADSVKGRFTISRDNAKNSLYLQMNSLRAEDTAVYYCARRHYGSSRYWYFDVWGQGTTVTVSS
VL: DIQMTQSPSTLSASVGDRVTITCRASQSIKSYLAWYQQKPGKAPKLLIYYASSLASGVPSRFSGSGSGTEFTLTISSLQPDDFATYYCQQYGESSYTFGQGTKLEIK
notes: humanized variant of 21B10; isotype control hIgG4; also called Var6; variant no 6
As to B1, the binding entry is given as “binds”.

B2: variant 8 a-NRP1_LEP n° 1 (antibody, V domains shown)
VH: B1 VH
VL: EIVLTQSPATLSLSPGERATLSCRASQSVKSYLAWYQQKPGQAPRLLIYYASSRATGIPARFSGSGSGTDFTLTISSLEPEDFAVYYCQQYSESPYTFGQGTKLEIK
notes: humanized variant of 21B10; isotype control hIgG4; also called Var8; variant no 8
Take B2: the binding result was “binds”.
